Residue numbers refer to the chain shown, from its start. In names and notes the source's numbering stands. These are yes or no findings as the source states them, for the method shown. Some binding calls cover weakened binding; strength is not graded here. One block for each binder: values may come before it.
What was measured:
Assay in all cases: AP-ligand binding, COS-7
[1] = target: T1, human NgR1 alanine mutant 179 (human) (UniProt Q9BZR6)
T1 sequence: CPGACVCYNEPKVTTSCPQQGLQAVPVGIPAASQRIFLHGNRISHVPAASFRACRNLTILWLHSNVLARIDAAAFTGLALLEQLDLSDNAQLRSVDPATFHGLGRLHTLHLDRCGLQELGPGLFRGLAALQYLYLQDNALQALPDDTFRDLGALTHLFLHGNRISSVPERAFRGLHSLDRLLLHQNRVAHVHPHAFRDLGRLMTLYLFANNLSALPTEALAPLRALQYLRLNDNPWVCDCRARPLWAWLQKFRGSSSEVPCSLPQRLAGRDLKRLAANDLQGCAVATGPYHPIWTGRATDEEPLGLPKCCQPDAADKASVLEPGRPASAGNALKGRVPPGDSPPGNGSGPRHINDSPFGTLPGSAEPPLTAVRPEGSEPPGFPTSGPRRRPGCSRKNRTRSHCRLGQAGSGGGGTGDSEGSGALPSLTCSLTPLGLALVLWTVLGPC

[2] = target: T2, human NgR1 alanine mutant 87, 89 (human) (UniProt Q9BZR6)
T2 sequence: T1 sequence with W61A, H63A, A153N

[3] = target: T3, human NgR1 alanine mutant 189, 191, 284 (human) (UniProt Q9BZR6)
T3 sequence: T1 sequence with A153N, R163A, S165A, E258A

[4] = target: T4, human NgR1 alanine mutant 108, 131 (human) (UniProt Q9BZR6)
T4 sequence: T1 sequence with E82A, R105A, A153N

[5] = target: T5, human NgR1 alanine mutant 220, 223, 224 (human) (UniProt Q9BZR6)
T5 sequence: T1 sequence with A153N, H194A, R197A, D198A

[6] = target: T6, human NgR1 alanine mutant 189, 191 (human) (UniProt Q9BZR6)
T6 sequence: T1 sequence with A153N, R163A, S165A

- binding [1]: binds
- binding [2]: binds
- binding [3]: binds
- binding [4]: binds
- binding [5]: binds
- binding [6]: binds
B1: AP-fused Amino-Nogo fragment B4C (a.a. 950-1018) (ligand)
chain: LLPPDVSALATQAEIESIVKPKVLVKEAEKKLPSDTEKEDRSPSAIFSAELSKTSVVDLLYWRDIKKTG
notes: also called AmNg B4C; AP-B4C; not shown: alkaline phosphatase (AP), vector pcAP6

- binding [1]: binds
- binding [2]: binds
- binding [3]: binds
- binding [4]: binds
- binding [5]: binds
- binding [6]: binds
B2: AP-Nogo-66 (ligand, UniProt Q9NQC3 1055-1120, looked up)
chain: RIYKGVIQAIQKSDEGHPFRAYLESEVAISEELVQKYSNSALGHVNCTIKELRRLFLVDDLVDSLK
notes: domain: Nogo-66; construct described elsewhere (Fournier 2001); also called AP-Ng66; Ng66; not shown: alkaline phosphatase (AP); construct described elsewhere

Source: patent US20090111753A1, “Nogo-A Polypeptide Fragments, Variant Nogo Receptor-1 Polypeptides, and Uses Thereof” (Yale University, priority 2004, published 2009)
